## Results of single-concentration screens

Chains of the proteins cited; added tags and fusions are not shown. Residues count along the entry.
UniProt Q4DA54, 1-478: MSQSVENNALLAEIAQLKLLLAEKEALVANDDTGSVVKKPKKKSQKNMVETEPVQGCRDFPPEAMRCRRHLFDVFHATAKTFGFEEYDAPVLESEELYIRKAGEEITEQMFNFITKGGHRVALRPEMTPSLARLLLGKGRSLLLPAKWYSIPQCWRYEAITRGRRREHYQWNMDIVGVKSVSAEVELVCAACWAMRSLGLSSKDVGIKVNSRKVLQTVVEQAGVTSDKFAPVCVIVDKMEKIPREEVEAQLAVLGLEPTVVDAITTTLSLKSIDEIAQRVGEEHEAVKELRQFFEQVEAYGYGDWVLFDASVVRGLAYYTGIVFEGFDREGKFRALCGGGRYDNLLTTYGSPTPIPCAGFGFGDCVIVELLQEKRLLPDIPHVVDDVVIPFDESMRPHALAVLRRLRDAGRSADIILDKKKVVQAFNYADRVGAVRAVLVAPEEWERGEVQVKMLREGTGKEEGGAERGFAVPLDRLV
UniProt P9WFT3, whole entry: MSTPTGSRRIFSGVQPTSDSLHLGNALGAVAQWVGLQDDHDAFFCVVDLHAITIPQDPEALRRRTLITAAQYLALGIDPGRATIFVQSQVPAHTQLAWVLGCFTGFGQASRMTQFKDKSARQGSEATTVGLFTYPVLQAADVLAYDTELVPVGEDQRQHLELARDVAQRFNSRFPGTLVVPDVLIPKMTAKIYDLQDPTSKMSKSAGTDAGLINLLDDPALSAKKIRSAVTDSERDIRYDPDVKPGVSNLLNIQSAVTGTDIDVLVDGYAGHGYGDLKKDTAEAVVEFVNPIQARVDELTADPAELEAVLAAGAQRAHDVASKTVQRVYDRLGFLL
UniProt I6X8D2, whole entry: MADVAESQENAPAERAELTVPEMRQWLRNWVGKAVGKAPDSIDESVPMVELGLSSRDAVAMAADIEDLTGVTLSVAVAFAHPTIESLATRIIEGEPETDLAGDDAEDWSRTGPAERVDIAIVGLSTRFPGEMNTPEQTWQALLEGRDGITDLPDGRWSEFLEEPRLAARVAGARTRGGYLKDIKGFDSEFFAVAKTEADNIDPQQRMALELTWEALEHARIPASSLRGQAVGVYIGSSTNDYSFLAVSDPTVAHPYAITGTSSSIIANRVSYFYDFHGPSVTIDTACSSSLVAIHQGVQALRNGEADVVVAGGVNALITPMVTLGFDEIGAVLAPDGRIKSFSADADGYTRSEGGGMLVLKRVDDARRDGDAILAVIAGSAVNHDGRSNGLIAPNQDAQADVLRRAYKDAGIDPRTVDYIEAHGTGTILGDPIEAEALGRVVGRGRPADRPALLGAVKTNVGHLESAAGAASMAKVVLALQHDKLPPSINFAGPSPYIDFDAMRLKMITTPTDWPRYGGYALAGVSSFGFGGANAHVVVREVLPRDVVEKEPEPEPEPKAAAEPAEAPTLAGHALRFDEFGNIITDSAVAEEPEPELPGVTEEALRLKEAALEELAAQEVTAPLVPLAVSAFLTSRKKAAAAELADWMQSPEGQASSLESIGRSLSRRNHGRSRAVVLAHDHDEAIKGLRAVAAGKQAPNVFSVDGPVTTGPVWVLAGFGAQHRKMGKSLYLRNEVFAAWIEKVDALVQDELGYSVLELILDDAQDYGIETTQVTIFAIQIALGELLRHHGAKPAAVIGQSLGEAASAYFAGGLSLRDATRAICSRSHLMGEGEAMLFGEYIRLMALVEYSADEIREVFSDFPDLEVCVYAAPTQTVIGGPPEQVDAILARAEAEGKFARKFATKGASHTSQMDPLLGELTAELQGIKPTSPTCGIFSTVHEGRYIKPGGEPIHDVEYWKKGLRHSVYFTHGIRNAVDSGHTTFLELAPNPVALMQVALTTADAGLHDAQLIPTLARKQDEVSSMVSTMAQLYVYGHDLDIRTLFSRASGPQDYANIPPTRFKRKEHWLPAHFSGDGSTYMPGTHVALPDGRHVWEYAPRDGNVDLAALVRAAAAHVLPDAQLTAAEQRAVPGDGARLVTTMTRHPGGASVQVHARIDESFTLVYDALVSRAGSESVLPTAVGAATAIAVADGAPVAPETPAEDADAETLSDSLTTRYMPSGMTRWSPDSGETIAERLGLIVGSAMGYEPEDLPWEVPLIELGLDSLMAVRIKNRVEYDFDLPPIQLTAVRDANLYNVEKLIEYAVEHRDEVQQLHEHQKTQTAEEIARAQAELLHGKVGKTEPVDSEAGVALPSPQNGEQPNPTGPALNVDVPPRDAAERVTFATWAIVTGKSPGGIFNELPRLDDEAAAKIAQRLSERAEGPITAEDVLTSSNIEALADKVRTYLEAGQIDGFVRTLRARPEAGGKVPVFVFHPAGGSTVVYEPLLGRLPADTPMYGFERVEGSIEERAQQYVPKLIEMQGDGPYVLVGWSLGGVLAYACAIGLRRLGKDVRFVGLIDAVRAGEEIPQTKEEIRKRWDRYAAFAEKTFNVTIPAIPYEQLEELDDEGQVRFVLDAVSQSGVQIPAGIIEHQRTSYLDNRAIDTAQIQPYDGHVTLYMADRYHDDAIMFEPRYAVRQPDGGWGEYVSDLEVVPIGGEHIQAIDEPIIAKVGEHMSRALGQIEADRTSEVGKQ
UniProt Q8IDJ8, 1-583: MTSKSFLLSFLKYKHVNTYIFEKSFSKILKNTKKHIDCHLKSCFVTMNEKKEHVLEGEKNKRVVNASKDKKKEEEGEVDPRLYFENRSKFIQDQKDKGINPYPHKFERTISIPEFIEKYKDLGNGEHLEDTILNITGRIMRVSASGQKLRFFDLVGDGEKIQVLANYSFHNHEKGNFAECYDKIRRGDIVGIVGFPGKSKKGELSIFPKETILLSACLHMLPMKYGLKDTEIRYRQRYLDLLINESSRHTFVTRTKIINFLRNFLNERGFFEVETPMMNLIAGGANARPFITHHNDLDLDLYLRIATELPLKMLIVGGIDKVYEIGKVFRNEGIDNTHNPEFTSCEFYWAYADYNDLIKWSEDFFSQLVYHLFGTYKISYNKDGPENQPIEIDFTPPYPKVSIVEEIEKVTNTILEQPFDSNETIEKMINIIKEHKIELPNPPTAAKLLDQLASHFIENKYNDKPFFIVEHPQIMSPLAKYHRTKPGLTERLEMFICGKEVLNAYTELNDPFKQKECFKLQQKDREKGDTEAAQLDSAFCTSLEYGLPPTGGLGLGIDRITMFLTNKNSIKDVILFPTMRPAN

The values are deposited in ChEMBL (CHEMBL3988442, “University of Dundee, Small-Polar-MMV Screening Library” (2021)).

TcHisRS: 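Enzyme assay of histidyl-tRNA synthetase; the read-out is not stated. Target: Histidine-tRNA ligase, Trypanosoma cruzi CL Brener (UniProt Q4DA54). Tested at 30 µM. Higher reads as stronger inhibition (inferred: compounds with an IC50 in retests scored well above the rest). Size under these conditions: about 69,000 compounds, about 31 of them at 50% or above in at least one test.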
MtTrpRS: 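Tryptophan-tRNA ligase, Mycobacterium tuberculosis (UniProt P9WFT3). Enzyme assay of tryptophanyl-tRNA synthetase; the read-out is not stated. Concentration: 10 µM. Higher most likely means stronger inhibition; the record gives no direction and few retests gave an IC50. About 65,000 compounds were tested under these conditions; 0.098% (about 64) showed 50% or more at least once.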
Pks13 thioesterase: 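Polyketide synthase Pks13, Mycobacterium tuberculosis (UniProt I6X8D2). Enzyme assay of the thioesterase domain of polyketide synthase 13; the read-out is not stated. Compounds at 30 µM. The record gives no direction; the compounds picked for IC50 retests had high values, so higher reads as stronger inhibition. About 67,000 compounds were tested under these conditions; 0.46% (about 300) showed 50% or more at least once.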
PfKRS1: 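Lysine-tRNA ligase, Plasmodium falciparum 3D7 (UniProt Q8IDJ8). Enzyme assay of the cytosolic lysyl-tRNA synthetase in 384-well plates, read by luminescence. Compounds at 30 µM. Higher reads as stronger inhibition, judged from the few compounds that gave an IC50. Size under these conditions: about 69,000 compounds, about 49 of them at 50% or above in at least one test.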
Toxoplasma: 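Assay of Toxoplasma gondii numbers, read through their beta-galactosidase reporter with a colour substrate. Compounds at 10 µM. The record gives no direction; the compounds picked for IC50 retests had high values, so higher reads as fewer parasites. About 67,000 compounds were tested under these conditions; 0.38% (about 260) showed 50% or more at least once.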

Each number is a percent effect as filed.
The controls that fix the scale are not given in the record; negative values are as filed.
Compounds were drawn at random from those tested, without regard to their results.

{"smiles": "O=S1(=O)CCC(S(=O)(=O)c2cccc(S(=O)(=O)N3CCOCC3)c2)C1", "stereo": "centres unmarked", "TcHisRS": 6.931, "MtTrpRS": 3.698, "Pks13 thioesterase": -4.666, "PfKRS1": -7.947}
{"smiles": "N#Cc1cccnc1NCCNC(=O)N1CCN2CCCCC2C1", "stereo": "centres unmarked", "TcHisRS": 9.852, "MtTrpRS": 10.67, "Pks13 thioesterase": 23.89, "PfKRS1": -2.438, "Toxoplasma": -1.517}
{"smiles": "[H][C@@]12CCN(C[C@@H]1C(=O)Nc1ccccc1)[C@@H](Cn1cc(CCO)nn1)C2", "Toxoplasma": -6.255}
{"smiles": "O=C1NCC2(CCCN(c3ncnc4c3CCC4)CC2)O1", "stereo": "centres unmarked", "TcHisRS": 13.13, "MtTrpRS": 5.677, "Pks13 thioesterase": -5.85, "PfKRS1": 5.209, "Toxoplasma": 0.2722}
{"smiles": "c1cnc(NC2COC3(CCN(Cc4nccs4)CC3)C2)cn1", "stereo": "centres unmarked", "TcHisRS": 3.922, "MtTrpRS": 0.3127, "Pks13 thioesterase": 10.45, "PfKRS1": -0.3807}
{"smiles": "CC(NC(=O)NCCc1cnn(C)c1)c1ccc(Cl)s1", "stereo": "centres unmarked", "TcHisRS": 5.882, "MtTrpRS": 4.237, "Pks13 thioesterase": -1.357, "PfKRS1": 0.7453, "Toxoplasma": -4.922}
{"smiles": "CC(=O)N1CCCN(C(=O)NC(C)c2ccc(C)o2)CC1", "stereo": "centres unmarked", "TcHisRS": 6.404, "MtTrpRS": 1.554, "Pks13 thioesterase": -23.49, "PfKRS1": 5.594, "Toxoplasma": 2.854}
{"smiles": "COCCCC(=O)N1CCC(Nc2cccnn2)CC1", "TcHisRS": 1.433, "MtTrpRS": 0.142, "Pks13 thioesterase": -8.883, "PfKRS1": -0.9367, "Toxoplasma": -24.37}
{"smiles": "COCc1cc(CN(C)C(C(=O)O)c2cc(C)c(OC)c(C)c2)n[nH]1", "stereo": "centres unmarked", "TcHisRS": 7.216, "MtTrpRS": -1.009, "Pks13 thioesterase": -14.57, "PfKRS1": 3.696, "Toxoplasma": 1.562}
{"smiles": "[H][C@@]12COC[C@]1([H])[C@@H](OCCN(C)C)CN2C(=O)c1ccc2c(c1)OCO2", "Toxoplasma": -3.245}
{"smiles": "Cc1ccnc(NCCSc2nccn2C)n1", "TcHisRS": 1.149, "MtTrpRS": -0.4472, "Pks13 thioesterase": -33.44, "PfKRS1": 2.112, "Toxoplasma": -5.047}
{"smiles": "O=C(O)C(F)(F)F.O=C(c1cccs1)N1CCCC2(COCCN(c3cccnc3)C2)C1", "stereo": "centres unmarked", "Toxoplasma": -12.56}
{"smiles": "Cn1cnc(S(=O)(=O)NCCCN2CCCC2=O)c1Cl", "TcHisRS": 4.07, "MtTrpRS": -2.804, "Pks13 thioesterase": -4.91, "PfKRS1": 6.898, "Toxoplasma": -7.88}
{"smiles": "COc1ccc(-c2ccoc2)cc1CNC1CCCC1", "TcHisRS": 2.793, "MtTrpRS": 2.183, "Pks13 thioesterase": 9.045, "PfKRS1": -6.48, "Toxoplasma": -1.393}
{"smiles": "CSCCCNC(=O)C1CCC(=O)N(C2CCCC2)C1", "stereo": "centres unmarked", "TcHisRS": 3.261, "MtTrpRS": -0.6054, "Pks13 thioesterase": -22.09, "PfKRS1": 0.9853, "Toxoplasma": -5.947}
{"smiles": "O=C(N1CCCC1)N1CCOCC2(CCN(Cc3cccs3)C2)C1", "stereo": "centres unmarked", "TcHisRS": 7.619, "MtTrpRS": 16.76, "Pks13 thioesterase": -12.7, "PfKRS1": 3.043}
{"smiles": "O=C1CC(Cc2ccc(NC(=O)c3cccc(F)c3)cc2)C(=O)N1", "stereo": "centres unmarked", "TcHisRS": 6.186, "MtTrpRS": -0.7048, "Pks13 thioesterase": -12.17, "PfKRS1": 5.484, "Toxoplasma": -8.253}
{"smiles": "COc1ccccc1OCc1cc(C(=O)N2CCS(=O)(=O)CC2)n[nH]1", "TcHisRS": 9.524, "MtTrpRS": 1.2, "Pks13 thioesterase": -1.079, "PfKRS1": 1.291, "Toxoplasma": 11.44}
{"smiles": "C[C@@H]1CN(c2ccc(Cl)cn2)CC[C@@]1(O)C1CCOCC1", "TcHisRS": 9.045, "MtTrpRS": 4.693, "Pks13 thioesterase": 1.741, "PfKRS1": 7.832, "Toxoplasma": 4.16}
{"smiles": "Cc1nn(C)c2cn(CC(=O)N3CCc4ccccc4C3)nc12", "TcHisRS": 5.804, "MtTrpRS": 0.1273, "Pks13 thioesterase": -18.3, "PfKRS1": 3.454, "Toxoplasma": -34.51}
{"smiles": "CCCN1CCc2nc(SCc3ccccc3F)[nH]c(=O)c2C1", "TcHisRS": -3.093, "MtTrpRS": 0.9878, "PfKRS1": 2.162, "Toxoplasma": -0.5148}
{"smiles": "CN(Cc1cc(=O)c(O)co1)C1CCCN(c2ccccc2)C1", "stereo": "centres unmarked", "TcHisRS": 1.299, "MtTrpRS": 0.6791, "Pks13 thioesterase": -37.93, "PfKRS1": 4.194, "Toxoplasma": -1.406}
{"smiles": "Cn1ccc(CN2CCC3(CCCN3CC3CC3)CC2)n1.O=C(O)C(F)(F)F.O=C(O)C(F)(F)F", "Toxoplasma": 3.751}
{"smiles": "CCOC(=O)NC(CNC(=O)CCc1ccccn1)CC(C)C", "stereo": "centres unmarked", "TcHisRS": -1.695, "MtTrpRS": 0.6706, "Pks13 thioesterase": -5.243, "PfKRS1": 0.3223, "Toxoplasma": -1.116}
{"smiles": "O=C(O)c1cnc2c(Br)cccc2c1O", "TcHisRS": 5.752, "MtTrpRS": -0.5913, "Pks13 thioesterase": -7.435, "PfKRS1": 1.914, "Toxoplasma": 11.9}
{"smiles": "COc1ccnc(N2CCCN(C(=O)Cc3ccc(C)s3)CC2)n1", "TcHisRS": 4.373, "MtTrpRS": 18.18, "PfKRS1": -2.059, "Toxoplasma": 5.385}

For reference, 3 entries once more:

SMILES,TcHisRS,MtTrpRS,Pks13 thioesterase,PfKRS1,Toxoplasma
CSCCCNC(=O)C1CCC(=O)N(C2CCCC2)C1 (centres unmarked),3.261,-0.6054,-22.09,0.9853,-5.947
COCCCC(=O)N1CCC(Nc2cccnn2)CC1,1.433,0.142,-8.883,-0.9367,-24.37
O=C1CC(Cc2ccc(NC(=O)c3cccc(F)c3)cc2)C(=O)N1 (centres unmarked),6.186,-0.7048,-12.17,5.484,-8.253